{"sequences": {"note": "The chains behind the UniProt entries cited, without tags or fusion partners. Where a name states a change or a piece, a line headed by the entry shows the natural chain unless it says otherwise.", "UniProt Q6KAU8": "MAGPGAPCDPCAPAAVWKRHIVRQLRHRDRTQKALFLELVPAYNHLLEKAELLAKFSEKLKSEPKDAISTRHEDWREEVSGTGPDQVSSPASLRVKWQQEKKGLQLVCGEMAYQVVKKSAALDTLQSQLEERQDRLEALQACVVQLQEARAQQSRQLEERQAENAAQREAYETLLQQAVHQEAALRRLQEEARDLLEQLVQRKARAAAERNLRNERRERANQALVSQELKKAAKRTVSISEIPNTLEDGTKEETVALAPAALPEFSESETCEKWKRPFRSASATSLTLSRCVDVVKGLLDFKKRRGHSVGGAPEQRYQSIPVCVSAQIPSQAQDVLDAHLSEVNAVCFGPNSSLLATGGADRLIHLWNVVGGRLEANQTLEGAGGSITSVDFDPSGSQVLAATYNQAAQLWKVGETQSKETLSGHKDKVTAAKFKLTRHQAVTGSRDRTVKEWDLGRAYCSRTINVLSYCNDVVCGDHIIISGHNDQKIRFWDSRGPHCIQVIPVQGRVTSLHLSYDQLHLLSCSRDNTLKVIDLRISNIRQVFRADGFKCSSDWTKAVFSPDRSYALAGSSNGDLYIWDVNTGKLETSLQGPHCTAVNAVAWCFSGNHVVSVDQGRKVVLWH", "UniProt Q6P2L6": "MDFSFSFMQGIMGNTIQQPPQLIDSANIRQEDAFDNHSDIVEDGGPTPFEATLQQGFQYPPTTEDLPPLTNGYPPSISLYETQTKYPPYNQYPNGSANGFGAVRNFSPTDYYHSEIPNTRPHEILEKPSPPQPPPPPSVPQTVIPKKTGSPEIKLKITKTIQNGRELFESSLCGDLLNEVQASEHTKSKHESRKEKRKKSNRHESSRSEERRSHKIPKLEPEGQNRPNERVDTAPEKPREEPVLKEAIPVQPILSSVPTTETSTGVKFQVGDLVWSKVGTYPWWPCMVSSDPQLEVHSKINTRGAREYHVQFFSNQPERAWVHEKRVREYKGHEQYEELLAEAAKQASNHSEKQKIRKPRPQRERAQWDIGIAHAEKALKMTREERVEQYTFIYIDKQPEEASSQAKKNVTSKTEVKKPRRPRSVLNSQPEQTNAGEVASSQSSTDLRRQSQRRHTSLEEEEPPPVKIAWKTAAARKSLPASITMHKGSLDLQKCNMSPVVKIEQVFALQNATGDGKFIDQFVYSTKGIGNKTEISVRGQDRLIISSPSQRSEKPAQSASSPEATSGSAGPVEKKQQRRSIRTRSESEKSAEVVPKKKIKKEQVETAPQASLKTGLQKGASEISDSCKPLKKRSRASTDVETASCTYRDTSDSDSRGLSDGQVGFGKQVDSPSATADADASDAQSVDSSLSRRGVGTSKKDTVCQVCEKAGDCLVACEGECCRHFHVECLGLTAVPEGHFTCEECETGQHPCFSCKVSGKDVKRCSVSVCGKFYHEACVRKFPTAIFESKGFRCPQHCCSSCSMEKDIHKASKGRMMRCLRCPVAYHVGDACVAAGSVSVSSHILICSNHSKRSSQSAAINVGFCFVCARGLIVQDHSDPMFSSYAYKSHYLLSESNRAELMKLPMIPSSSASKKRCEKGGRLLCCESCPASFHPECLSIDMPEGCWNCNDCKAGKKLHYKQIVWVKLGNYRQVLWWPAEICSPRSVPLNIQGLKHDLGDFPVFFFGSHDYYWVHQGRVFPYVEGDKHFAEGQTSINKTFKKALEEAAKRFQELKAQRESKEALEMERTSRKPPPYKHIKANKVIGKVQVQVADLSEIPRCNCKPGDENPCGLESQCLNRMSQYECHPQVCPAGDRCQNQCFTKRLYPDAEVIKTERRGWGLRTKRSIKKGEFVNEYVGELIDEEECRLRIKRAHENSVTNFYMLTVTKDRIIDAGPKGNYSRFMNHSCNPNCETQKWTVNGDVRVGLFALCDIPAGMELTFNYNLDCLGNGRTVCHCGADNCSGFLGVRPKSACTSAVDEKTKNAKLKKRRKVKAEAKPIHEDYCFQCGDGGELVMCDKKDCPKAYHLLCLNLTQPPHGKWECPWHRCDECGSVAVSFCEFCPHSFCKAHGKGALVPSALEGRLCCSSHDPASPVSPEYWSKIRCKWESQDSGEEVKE", "UniProt Q6PDQ2": "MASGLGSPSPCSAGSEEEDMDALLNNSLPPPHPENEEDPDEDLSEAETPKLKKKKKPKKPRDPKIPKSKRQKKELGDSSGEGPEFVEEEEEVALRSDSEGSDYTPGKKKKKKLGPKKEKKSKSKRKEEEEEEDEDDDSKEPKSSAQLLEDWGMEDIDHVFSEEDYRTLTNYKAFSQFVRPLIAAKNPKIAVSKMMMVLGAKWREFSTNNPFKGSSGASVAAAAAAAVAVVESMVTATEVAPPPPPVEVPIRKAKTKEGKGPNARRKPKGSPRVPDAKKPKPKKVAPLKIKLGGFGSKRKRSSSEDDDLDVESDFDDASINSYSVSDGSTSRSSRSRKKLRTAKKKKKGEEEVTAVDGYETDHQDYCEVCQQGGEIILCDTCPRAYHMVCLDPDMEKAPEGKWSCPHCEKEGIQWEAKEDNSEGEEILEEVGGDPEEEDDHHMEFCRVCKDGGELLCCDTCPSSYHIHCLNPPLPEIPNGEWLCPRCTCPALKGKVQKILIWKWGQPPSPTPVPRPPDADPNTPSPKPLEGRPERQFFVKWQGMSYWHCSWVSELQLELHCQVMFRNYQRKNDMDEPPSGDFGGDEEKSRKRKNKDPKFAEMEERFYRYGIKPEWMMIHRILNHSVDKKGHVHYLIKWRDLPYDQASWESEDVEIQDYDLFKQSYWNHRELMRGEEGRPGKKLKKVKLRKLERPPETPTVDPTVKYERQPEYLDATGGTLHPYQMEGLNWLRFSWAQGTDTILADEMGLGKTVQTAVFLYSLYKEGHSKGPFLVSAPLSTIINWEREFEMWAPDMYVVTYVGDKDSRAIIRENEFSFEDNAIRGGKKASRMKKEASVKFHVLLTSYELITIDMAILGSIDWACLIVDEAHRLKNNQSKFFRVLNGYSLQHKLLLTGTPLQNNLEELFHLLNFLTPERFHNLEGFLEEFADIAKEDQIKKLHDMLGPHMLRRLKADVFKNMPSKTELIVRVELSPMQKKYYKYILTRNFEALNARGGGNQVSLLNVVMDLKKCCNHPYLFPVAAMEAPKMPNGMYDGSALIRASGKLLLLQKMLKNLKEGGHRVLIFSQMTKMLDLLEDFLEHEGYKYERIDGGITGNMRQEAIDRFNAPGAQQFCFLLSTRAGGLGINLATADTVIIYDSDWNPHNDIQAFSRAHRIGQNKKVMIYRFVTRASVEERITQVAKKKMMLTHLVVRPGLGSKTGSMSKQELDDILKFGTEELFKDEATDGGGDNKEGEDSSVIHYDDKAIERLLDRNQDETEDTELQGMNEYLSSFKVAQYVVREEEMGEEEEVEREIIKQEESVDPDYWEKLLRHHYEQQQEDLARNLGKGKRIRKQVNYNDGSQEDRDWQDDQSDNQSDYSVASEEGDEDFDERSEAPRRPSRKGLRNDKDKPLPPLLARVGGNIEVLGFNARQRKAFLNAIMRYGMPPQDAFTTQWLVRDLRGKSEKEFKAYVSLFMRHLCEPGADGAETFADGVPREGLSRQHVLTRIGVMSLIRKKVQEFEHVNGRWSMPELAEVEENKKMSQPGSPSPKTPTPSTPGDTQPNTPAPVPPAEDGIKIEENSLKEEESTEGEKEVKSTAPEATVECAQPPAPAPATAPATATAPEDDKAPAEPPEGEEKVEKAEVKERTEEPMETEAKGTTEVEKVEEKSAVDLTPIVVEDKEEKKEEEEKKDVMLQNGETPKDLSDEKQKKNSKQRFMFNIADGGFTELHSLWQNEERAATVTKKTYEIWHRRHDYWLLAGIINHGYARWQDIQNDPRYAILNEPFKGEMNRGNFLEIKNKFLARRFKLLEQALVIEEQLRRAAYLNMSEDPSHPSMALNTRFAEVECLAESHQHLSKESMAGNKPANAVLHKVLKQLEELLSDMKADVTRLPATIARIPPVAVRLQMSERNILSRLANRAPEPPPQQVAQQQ", "UniProt Q6A028": "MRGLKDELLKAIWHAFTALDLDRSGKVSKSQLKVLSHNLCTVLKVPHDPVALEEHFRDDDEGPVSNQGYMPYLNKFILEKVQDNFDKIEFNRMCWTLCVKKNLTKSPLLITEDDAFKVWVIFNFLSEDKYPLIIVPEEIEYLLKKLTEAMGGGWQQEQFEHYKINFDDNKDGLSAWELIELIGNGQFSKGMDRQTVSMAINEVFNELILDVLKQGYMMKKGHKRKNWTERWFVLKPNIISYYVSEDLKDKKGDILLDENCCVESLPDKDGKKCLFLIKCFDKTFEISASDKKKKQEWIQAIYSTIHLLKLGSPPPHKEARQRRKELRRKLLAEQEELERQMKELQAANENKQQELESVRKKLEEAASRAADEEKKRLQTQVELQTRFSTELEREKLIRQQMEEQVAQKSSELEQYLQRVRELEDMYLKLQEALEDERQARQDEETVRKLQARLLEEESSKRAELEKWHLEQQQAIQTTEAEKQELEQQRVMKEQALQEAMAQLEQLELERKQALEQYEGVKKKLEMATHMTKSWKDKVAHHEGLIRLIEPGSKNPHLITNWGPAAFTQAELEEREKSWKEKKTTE", "UniProt Q6P1H6": "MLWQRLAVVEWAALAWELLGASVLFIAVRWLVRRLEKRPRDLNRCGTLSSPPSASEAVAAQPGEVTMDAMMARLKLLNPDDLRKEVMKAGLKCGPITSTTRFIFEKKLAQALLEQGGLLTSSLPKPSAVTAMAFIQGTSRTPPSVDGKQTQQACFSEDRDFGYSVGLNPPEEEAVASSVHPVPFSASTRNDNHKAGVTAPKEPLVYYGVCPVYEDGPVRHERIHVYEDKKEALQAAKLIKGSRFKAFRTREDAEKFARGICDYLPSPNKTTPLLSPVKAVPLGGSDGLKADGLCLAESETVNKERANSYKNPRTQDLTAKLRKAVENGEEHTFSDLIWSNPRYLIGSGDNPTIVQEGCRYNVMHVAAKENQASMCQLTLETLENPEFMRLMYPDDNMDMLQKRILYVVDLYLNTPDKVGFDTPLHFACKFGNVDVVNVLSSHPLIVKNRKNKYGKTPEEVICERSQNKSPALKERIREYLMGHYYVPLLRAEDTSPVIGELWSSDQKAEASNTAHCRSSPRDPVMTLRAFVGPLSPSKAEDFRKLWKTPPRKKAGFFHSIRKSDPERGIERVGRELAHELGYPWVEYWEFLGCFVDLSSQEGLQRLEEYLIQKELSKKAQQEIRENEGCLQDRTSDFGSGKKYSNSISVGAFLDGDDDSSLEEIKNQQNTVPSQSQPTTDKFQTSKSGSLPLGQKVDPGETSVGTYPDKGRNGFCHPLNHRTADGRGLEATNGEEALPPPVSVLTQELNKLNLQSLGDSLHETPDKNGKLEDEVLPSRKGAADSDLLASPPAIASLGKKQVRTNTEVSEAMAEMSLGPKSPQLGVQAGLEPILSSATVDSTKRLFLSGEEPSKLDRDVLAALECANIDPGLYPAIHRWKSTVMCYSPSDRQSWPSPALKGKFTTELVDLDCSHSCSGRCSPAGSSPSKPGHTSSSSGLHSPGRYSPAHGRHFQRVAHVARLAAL", "UniProt Q6P5G6": "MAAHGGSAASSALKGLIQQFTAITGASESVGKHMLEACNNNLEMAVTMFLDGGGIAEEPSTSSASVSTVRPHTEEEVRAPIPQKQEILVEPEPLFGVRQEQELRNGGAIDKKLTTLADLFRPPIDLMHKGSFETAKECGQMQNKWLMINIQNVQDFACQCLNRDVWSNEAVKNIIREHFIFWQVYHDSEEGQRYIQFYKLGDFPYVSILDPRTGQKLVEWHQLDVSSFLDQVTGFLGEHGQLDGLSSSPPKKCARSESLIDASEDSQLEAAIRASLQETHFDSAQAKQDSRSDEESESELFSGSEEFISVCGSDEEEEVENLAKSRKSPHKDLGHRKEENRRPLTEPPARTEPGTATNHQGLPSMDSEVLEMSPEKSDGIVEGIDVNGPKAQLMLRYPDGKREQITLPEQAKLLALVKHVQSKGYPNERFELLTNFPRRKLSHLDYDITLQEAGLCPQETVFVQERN", "UniProt Q6PAC3": "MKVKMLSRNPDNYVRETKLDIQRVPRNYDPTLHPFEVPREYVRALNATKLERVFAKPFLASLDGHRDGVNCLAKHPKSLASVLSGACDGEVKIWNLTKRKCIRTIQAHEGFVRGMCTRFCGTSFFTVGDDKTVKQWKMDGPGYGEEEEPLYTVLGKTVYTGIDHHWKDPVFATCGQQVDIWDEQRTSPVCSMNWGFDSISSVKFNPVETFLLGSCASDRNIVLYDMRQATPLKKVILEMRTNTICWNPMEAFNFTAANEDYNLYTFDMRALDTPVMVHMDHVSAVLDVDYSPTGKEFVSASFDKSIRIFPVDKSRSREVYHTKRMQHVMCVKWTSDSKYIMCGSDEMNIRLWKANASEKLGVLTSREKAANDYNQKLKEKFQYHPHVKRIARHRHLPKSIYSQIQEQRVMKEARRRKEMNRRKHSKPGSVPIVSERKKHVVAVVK"}, "source": "the supplement of paper PMC12819154", "about": "“High-throughput peptide-centric local stability assay extends protein–ligand identification to membrane proteins, tissues and bacteria” (Nature Structural & Molecular Biology, 2025)", "note": "The other results are listed elsewhere or left out. Most entries show no effect beyond the scatter of the controls.", "data": [{"compound": "CN[C@@H]1C[C@H]2O[C@@](C)([C@@H]1OC)n1c3ccccc3c3c4c(c5c6ccccc6n2c5c31)C(=O)NC4 [staurosporine]", "experiment": "log2 fold change of tryptic peptide abundance, ligand vs vehicle (limited proteolysis) (log2 ratio); higher = more trypsin-susceptible (destabilized)", "settings": "ligand concentration: 20 uM; sample: mouse liver crude lysate; replicate design: treated separately", "values": [{"target": "UniProt Q6KAU8 (peptide sequence: SASATSLTLSR, peptide start residue: 280)", "log2 fold change": 0.507}, {"target": "UniProt Q6P069 (peptide sequence: ALTDSFRR, peptide start residue: 168)", "log2 fold change": 0.631}, {"target": "UniProt Q6DFV5 (peptide sequence: SLSGESLNGMVTK, peptide start residue: 118)", "log2 fold change": 0.644}, {"target": "UniProt Q6NXI6 (peptide sequence: TPAPATTPSHNPLANILSK, peptide start residue: 514)", "log2 fold change": 0.223}, {"target": "UniProt Q6VNB8 (peptide sequence: DTSSQPSSTSHRPR, peptide start residue: 3281)", "log2 fold change": -0.295}, {"target": "UniProt Q6P2L6 (peptide sequence: KSLPASITMHK, peptide start residue: 477)", "log2 fold change": 0.667}, {"target": "UniProt Q6PH08 (peptide sequence: LLEILKEVENEK, peptide start residue: 761)", "log2 fold change": -0.329}, {"target": "UniProt Q6P5E4 (peptide sequence: VDALLSAQPK, peptide start residue: 950)", "log2 fold change": -1.1}, {"target": "UniProt Q6PCM2 (peptide sequence: RPGEPSMQGIPK, peptide start residue: 643)", "log2 fold change": -0.989}, {"target": "UniProt Q6GYP7 (peptide sequence: DQPGQAPMR, peptide start residue: 722)", "log2 fold change": -0.187}, {"target": "UniProt Q6KCD5 (peptide sequence: LMDNSTSVR, peptide start residue: 1814)", "log2 fold change": 0.563}, {"target": "UniProt Q6NZN0 (peptide sequence: RLNHSPPQSSSR, peptide start residue: 123)", "log2 fold change": -0.331}, {"target": "UniProt Q6PFQ7 (peptide sequence: EGPLFIHR, peptide start residue: 569)", "log2 fold change": -0.0369}, {"target": "UniProt Q6P2K6 (peptide sequence: TKNDDDIMDPISK, peptide start residue: 690)", "log2 fold change": -0.312}, {"target": "UniProt Q6P6I6 (peptide sequence: FICKLPDK, peptide start residue: 40)", "log2 fold change": 0.378}, {"target": "UniProt Q6SJQ5 (peptide sequence: HYGGGEIGLVETHR, peptide start residue: 217)", "log2 fold change": -0.00151}, {"target": "UniProt Q6PDQ2 (peptide sequence: MLDLLEDFLEHEGYKYER, peptide start residue: 1071)", "log2 fold change": 0.969}, {"target": "UniProt Q6P5B0 (peptide sequence: LHNELQSGTLSLGK, peptide start residue: 58)", "log2 fold change": -0.163}, {"target": "UniProt Q6A028 (peptide sequence: KQALEQYEGVK, peptide start residue: 511)", "log2 fold change": -0.814}, {"target": "UniProt Q6NS52 (peptide sequence: CVARAPPSCIK, peptide start residue: 285)", "log2 fold change": -0.127}, {"target": "UniProt Q6P1H6 (peptide sequence: VDPGETSVGTYPDKGR, peptide start residue: 696)", "log2 fold change": 0.248}, {"target": "UniProt Q6P5G6 (peptide sequence: AAHGGSAASSALK, peptide start residue: 2)", "log2 fold change": 0.405}, {"target": "UniProt Q6A0A2 (peptide sequence: IQNPSAYAK, peptide start residue: 466)", "log2 fold change": -0.133}, {"target": "UniProt Q6PAC3 (peptide sequence: SIYSQIQEQR, peptide start residue: 399)", "log2 fold change": -0.232}, {"target": "UniProt Q6NZQ2 (peptide sequence: QSIPVLLEGR, peptide start residue: 133)", "log2 fold change": -0.334}]}]}
